In US20190367611A1:
These are yes or no findings as the source states them, for the method shown. Some binding calls cover weakened binding; strength is not graded here.

By UniProt entry, the sequences of proteins in these tests, tags left out.
UniProt P06654: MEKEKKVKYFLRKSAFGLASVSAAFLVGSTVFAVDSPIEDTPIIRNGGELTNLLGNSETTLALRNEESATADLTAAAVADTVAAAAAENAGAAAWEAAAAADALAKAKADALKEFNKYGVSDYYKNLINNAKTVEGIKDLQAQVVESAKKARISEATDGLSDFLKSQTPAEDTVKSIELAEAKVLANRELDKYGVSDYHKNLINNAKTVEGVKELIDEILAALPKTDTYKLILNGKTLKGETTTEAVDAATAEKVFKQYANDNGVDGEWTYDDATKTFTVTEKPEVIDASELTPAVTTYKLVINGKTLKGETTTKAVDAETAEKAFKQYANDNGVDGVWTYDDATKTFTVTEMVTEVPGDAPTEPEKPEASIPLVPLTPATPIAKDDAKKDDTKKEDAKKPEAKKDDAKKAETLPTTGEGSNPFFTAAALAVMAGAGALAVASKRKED

target: protein G (UniProt P06654); assay: semELISA on protein G

| binding | Substance |
| --- | --- |
| binds | mFc7.27 (from UniProt P0DOX5 233-449) |
| binds | mFc7.22 (from UniProt P0DOX5 233-449) |

target: protein G (UniProt P06654); assay: semELISA on protein G-coated plates

| Substance | binding |
| --- | --- |
| mFc8 (from UniProt P0DOX5 233-449) | binds |
| mFc12 (from UniProt P0DOX5 233-449) | binds |

The next lines start with the values.

| binding | Substance |
| --- | --- |
| binds | mFc7 (from UniProt P0DOX5 233-449) |
| binds | mFc3 (from UniProt P0DOX5 233-449) |
